Data as given in PubChem BioAssay AID686937 (Drosophila RNAi Screening Center, 2013)

Aim: 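Genes whose loss weakens secretory pathway function in fly cells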 (primary screen)
Cells: Drosophila S2 cells expressing secreted horseradish peroxidase
Knock-down reagent: long dsRNA against Drosophila genes
Timing: about 5.5 days (5 days dsRNA, then 12 h reporter induction)
Challenge: reporter expression induced after 5 days of dsRNA, read 12 h later; inducer not stated
Read-out: 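After 5 days of dsRNA and 12 h of reporter induction, medium peroxidase read by chemiluminescence and scored as per-plate z-score; higher values mean more reporter released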
Scale: z-score: higher = more reporter secreted into medium
In all, the deposit lists about 23,000 reagents; shown is an unselected part of those with a known target gene and a result. 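Reduced-secretion tags in replicate 1 do not always agree with the z-scores; no criterion for assigning the tags was given.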 A plus sign joins genes that one reagent is predicted to hit. Further read-outs or replicates are left out here. No sequences are given here. The record does not give: the amount of reagent.

{"Target gene": "VepD (Ventrally-expressed protein D)", "DRSC id": "DRSC22318", "z-score, replicate 1": -0.64}
{"Target gene": "Incenp (Inner centromere protein)", "DRSC id": "DRSC06116", "z-score, replicate 1": -0.06}
{"Target gene": "Incenp (Inner centromere protein)", "DRSC id": "DRSC21950", "z-score, replicate 1": 0.71}
{"Target gene": "CG4577", "DRSC id": "DRSC00658", "z-score, replicate 1": 0.24}
{"Target gene": "CG3328", "DRSC id": "DRSC04357", "z-score, replicate 1": 0.13}
{"Target gene": "jar (jaguar)", "DRSC id": "DRSC16974", "z-score, replicate 1": 0.26}
{"Target gene": "CG14036", "DRSC id": "DRSC02361", "z-score, replicate 1": 0.33}
{"Target gene": "CG6996", "DRSC id": "DRSC10758", "z-score, replicate 1": 0.42}
{"Target gene": "CG34109", "DRSC id": "DRSC02169", "z-score, replicate 1": -0.32}
{"Target gene": "CG34109", "DRSC id": "DRSC02224", "z-score, replicate 1": -0.04}
{"Target gene": "CG34109", "DRSC id": "DRSC02225", "z-score, replicate 1": -0.11}
{"Target gene": "Noc1 (Nucleolar complex protein 1)", "DRSC id": "DRSC10921", "z-score, replicate 1": 0.16}
{"Target gene": "Ugt302E1 (UDP-glycosyltransferase family 302 member E1)", "DRSC id": "DRSC15635", "z-score, replicate 1": 0.28}
{"Target gene": "CG12081", "DRSC id": "DRSC17802", "z-score, replicate 1": 0.19}
{"Target gene": "CG14459", "DRSC id": "DRSC11719", "z-score, replicate 1": -5, "phenotype, replicate 1": "reduced secretion"}
{"Target gene": "CG2767", "DRSC id": "DRSC15451", "z-score, replicate 1": 0.53}
{"Target gene": "DIP-kappa (Dpr-interacting protein kappa)", "DRSC id": "DRSC01336", "z-score, replicate 1": -1.82, "phenotype, replicate 1": "reduced secretion"}
{"Target gene": "DIP-kappa (Dpr-interacting protein kappa)", "DRSC id": "DRSC01337", "z-score, replicate 1": -0.38}
{"Target gene": "CG14609", "DRSC id": "DRSC12553", "z-score, replicate 1": 0}
{"Target gene": "Ctr1C (Copper transporter 1C)", "DRSC id": "DRSC15089", "z-score, replicate 1": 0.11}
{"Target gene": "CG32074", "DRSC id": "DRSC22246", "z-score, replicate 1": -0.88}
{"Target gene": "spas (spastin)", "DRSC id": "DRSC15929", "z-score, replicate 1": 0.51}
{"Target gene": "CG32564", "DRSC id": "DRSC19933", "z-score, replicate 1": -0.59}
{"Target gene": "Spn27A (Serpin 27A)", "DRSC id": "DRSC03608", "z-score, replicate 1": -0.28}
{"Target gene": "Grip128", "DRSC id": "DRSC20167", "z-score, replicate 1": 0.05}
{"Target gene": "Ripalpha (RPA-interacting protein alpha)", "DRSC id": "DRSC02657", "z-score, replicate 1": 0.08}
{"Target gene": "Cluap1 (Clusterin associated protein 1)", "DRSC id": "DRSC20637", "z-score, replicate 1": 0.45}
{"Target gene": "CG8838", "DRSC id": "DRSC00712", "z-score, replicate 1": 0.28}
{"Target gene": "CG1552", "DRSC id": "DRSC19665", "z-score, replicate 1": 0.37}
{"Target gene": "psq (pipsqueak)", "DRSC id": "DRSC07668", "z-score, replicate 1": -1.87, "phenotype, replicate 1": "reduced secretion"}
{"Target gene": "CG31467", "DRSC id": "DRSC16048", "z-score, replicate 1": -0.01}
{"Target gene": "CG33491 (retired record) + CG33496 (retired record) + CG33487 (retired record) + 1 more", "DRSC id": "DRSC22969", "z-score, replicate 1": -0.77}
{"Target gene": "CG30440", "DRSC id": "DRSC04775", "z-score, replicate 1": -0.4}
{"Target gene": "CG30440", "DRSC id": "DRSC04845", "z-score, replicate 1": 0.6}
{"Target gene": "CG30440", "DRSC id": "DRSC04855", "z-score, replicate 1": 0.52}
{"Target gene": "CG34056", "DRSC id": "DRSC08374", "z-score, replicate 1": 0.47}
{"Target gene": "Acp53C14a (Accessory gland protein 53C14a)", "DRSC id": "DRSC07224", "z-score, replicate 1": 0.24}
{"Target gene": "CG31913", "DRSC id": "DRSC00892", "z-score, replicate 1": 0.03}
{"Target gene": "CG14072", "DRSC id": "DRSC02375", "z-score, replicate 1": 0.28}
{"Target gene": "SAK (Sak kinase)", "DRSC id": "DRSC11879", "z-score, replicate 1": 0.19}

No new results follow: entries from further up.
{"Target gene": "CG8838", "DRSC id": "DRSC00712", "z-score, replicate 1": 0.28}
{"Target gene": "CG1552", "DRSC id": "DRSC19665", "z-score, replicate 1": 0.37}
